Measured values reported in patent publication US11124472B2, “Myocardial regeneration promoting compounds, preparation method thereof, and pharmaceutical composition” (GENHEALTH PHARMA CO., LTD., priority 2019, dated 2021).
Some entries share one result that the patent states for a list of compounds.

Legend:
[1] = tested on: heart of zebrafish; assay: Myocardial regeneration of zebrafish after heart cryoinjury; type: in vivo; settings: transgenic zebrafish (Tg-flil-eGFP), fed 12.5 μg/g daily for 7 days, compared to vehicle (27%)
[2] = tested on: α-MHC; assay: Determination of the expression level of α-MHC (MYH6 ELISA) in H9C2 cells; type: cell-based, rat; settings: 48 hours treatment at the concentrations of Table 3, DMSO group = 100%

Structure (SMILES)	percentage of the cryoinjury area [1]	expression level of α-MHC relative to the group added with DMSO [2]
O=C(O)/C=C/c1ccc(OC(=O)CCCC(=O)O)cc1 [Compound 1]	obviously decreased	increased
O=C(O)/C=C/c1ccc(OC(=O)CCCC(=O)O)c(O)c1 [Compound 2]	obviously decreased	increased
O=C(O)/C=C/c1ccc(OC(=O)CCCC(=O)O)c(OC(=O)CCCC(=O)O)c1 [Compound 3]	obviously decreased	increased
O=C(O)/C=C/c1ccc(OC(=O)CCCCC(=O)O)cc1 [Compound 4]	obviously decreased	increased
COC(=O)CCCCC(=O)Oc1ccc(/C=C/C(=O)O)cc1 [Compound 5]	obviously decreased	increased
COC(=O)CCCCC(=O)Oc1ccc(/C=C/C(=O)O)cc1OC(=O)CCCCC(=O)OC [Compound 6]	obviously decreased	increased
CC(=O)Oc1ccccc1C(=O)Oc1ccc(/C=C/C(=O)O)cc1 [Compound 7]	obviously decreased	increased
CC(=O)Oc1ccccc1C(=O)Oc1ccc(/C=C/C(=O)O)cc1O [Compound 8]	obviously decreased	increased
O=C(O)/C=C/c1ccc(OC(=O)Cc2cccc(Cl)c2)cc1 [Compound 9]	obviously decreased	increased
O=C(O)/C=C/c1ccc(OC(=O)Cc2cccc(Cl)c2)c(OC(=O)Cc2cccc(Cl)c2)c1 [Compound 10]	obviously decreased	increased
COC(=O)/C=C/c1ccc(OC(=O)Cc2cccc(Cl)c2)c(OC(=O)Cc2cccc(Cl)c2)c1 [Compound 11]	obviously decreased	increased
CC(C)(C)OC(=O)NCCCC(=O)Oc1ccc(/C=C/C(=O)O)cc1OC(=O)CCCNC(=O)OC(C)(C)C [Compound 12]	obviously decreased	increased
O=C(O)/C=C/c1ccc(NC(=O)CCCC(=O)O)cc1 [Compound 13]	obviously decreased	increased
COC(=O)/C=C/C(=O)Nc1ccc(/C=C/C(=O)O)cc1 [Compound 14]	obviously decreased	increased
CC(=O)Oc1ccccc1C(=O)N(C(=O)c1ccccc1OC(C)=O)c1ccc(/C=C/C(=O)O)cc1 [Compound 15]	obviously decreased	increased
O=C(O)/C=C/c1ccccc1 [Compound 16]	obviously decreased	increased
COC(=O)/C=C/c1ccccc1 [Compound 17]	obviously decreased	increased
COC(=O)/C=C/c1ccc(O)c(O)c1 [Compound 18]	obviously decreased	increased
O=C(/C=C/c1ccc(O)c(O)c1)O[C@@H](C(=O)O)[C@@H](O)C(=O)O [Compound 19]	obviously decreased	increased
O=C(/C=C/c1ccc(O)c(O)c1)O[C@@H]1C[C@](O)(C(=O)O)C[C@@H](O)[C@H]1O [Compound 20]	obviously decreased	increased
O=C(/C=C/c1ccccc1)OCc1ccc(O)cc1 [Compound 21]	obviously decreased	increased
O=C(O)/C=C/c1ccc(O)cc1 [Compound 22]	obviously decreased	increased
O=C(O)/C=C/c1ccc(O)cc1O [Compound 24]	obviously decreased	increased

Structure (SMILES)	percentage of the cryoinjury area [1]	expression level of α-MHC relative to the group added with DMSO [2]
COc1cc(/C=C/C(=O)O)ccc1O [Compound 25]	obviously decreased	
COc1cc(/C=C/C(=O)O)cc(OC)c1O [Compound 26]	obviously decreased	increased
CC(=O)C(=O)Oc1ccc(/C=C/C(=O)O)cc1 [Compound 27]	obviously decreased	increased
CC(=O)Oc1ccc(/C=C/C(=O)O)cc1 [Compound 28]	obviously decreased	increased
COC(=O)/C=C/c1ccc(OC(=O)c2ccccc2OC(C)=O)c(OC(=O)c2ccccc2OC(C)=O)c1 [Compound 29]	obviously decreased	increased
O=C(O)/C=C/c1ccc(OC(=O)c2cccnc2)cc1 [Compound 30]	obviously decreased	increased
Nc1ccc(/C=C/C(=O)O)cc1 [Compound 31]	obviously decreased	increased
O=C(O)/C=C/C(=O)Nc1ccc(/C=C/C(=O)O)cc1 [Compound 32]	obviously decreased	increased
O=C(O)/C=C/c1ccc(NC(=O)c2ccccc2O)cc1 [Compound 33]	obviously decreased	increased
O=C(/C=C/c1ccc2c(c1)OCO2)Nc1ccc(O)cc1 [Compound 34]	obviously decreased	increased
Cc1ccc(/C=C/C(=O)c2cccc(NC(=O)/C=C/c3ccc4c(c3)OCO4)c2)s1 [Compound 35]	obviously decreased	increased
O=C(O)/C=C/c1ccncc1 [Compound 36]	obviously decreased	increased
O=C(O)/C=C/c1cccnc1 [Compound 37]	obviously decreased	increased
O=C(O)/C=C/c1cccs1 [Compound 38]	obviously decreased	
O=C(O)/C=C/c1ccsc1 [Compound 39]	obviously decreased	increased
C=CCOc1ccc(/C=C/C(=O)c2sccc2N)c(OCC=C)c1 [Compound 40]	obviously decreased	increased
O=C(/C=C/c1ccsc1)c1ccc(O)cc1 [Compound 41]	obviously decreased	increased
O=C(/C=C/c1ccc2c(c1)OCO2)n1cccc1 [Compound 42]	obviously decreased	increased
O=C(/C=C/c1ccccn1)c1ccccn1 [Compound 43]	obviously decreased	increased
Cc1ccc(/C=C/C(=O)c2sc(N)nc2C)s1 [Compound 44]	obviously decreased	increased
O=C(/C=C/c1ccc(O)c(O)c1/C=C/c1ccc(O)c(O)c1)O[C@H](Cc1ccc(O)c(O)c1)C(=O)O [Compound 45]	obviously decreased	increased
O=C(/C=C/c1ccc(O)c(O)c1)O[C@H](Cc1ccc(O)c(O)c1)C(=O)O [Compound 46]	obviously decreased	increased
